Some peptides are written in HELM: one residue between dots, names in brackets for other building blocks, links after the first $.

This data set is described as follows: general procedure: solution-phase peptide synthesis; pentafluorophenyl active esters (OPfp); dicyclohexyl carbodiimide-pentafluorophe. The settings on record: late stage modification step.
Turning to “(L-α-aminooxypropionic acid^1, isoleucine methyl ester^8)-angiotensin-II”, the step yield was 89%.
Then “(hydroxyacetic acid^1, threonine methyl ester^8)-angiotensin-II”, with 92%; and “(hydroxyacetic acid^1, threonine/Me/methyl ester^8)-angiotensin-II”, with 91%; and “PEPTIDE1{[HOAA].R.V.Y.I.H.P.I.[OMe]}$$$$V2.0”, with 82%.
Then “PEPTIDE1{[Sar].R.V.Y.I.H.P.A.[OMe]}$$$$V2.0”, with 75%; and “PEPTIDE1{[Sar].R.V.Y.I.H.P.I.[OMe]}$$$$V2.0”, with 98%.
The substance “PEPTIDE1{[Sar].R.V.Y.I.H.P.[Thr(Me)].[OMe]}$$$$V2.0” returned a step yield of 83%.

For the origin of these results see patent US4388304A (Richter Gedeon Vegyeszeti Gyar RT, priority 1980, dated 1983).
